Laboratory results: PubChem BioAssay AID652259 (Drosophila RNAi Screening Center, 2013)
The screen tested about 22,000 reagents; shown is a random part of those with a known target gene and a result. Over the whole deposit, 233 (1.1%) were called active. 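Light values are raw, unnormalised plate reads; the ratio scores behind the reporter calls were not deposited.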 Entries without a mark were called inactive. A plus sign joins genes that one reagent is predicted to hit. Not stated in the record: the amount of reagent, the time to read-out, the dose of the treatment.

- Screen: 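Knock-downs that push a Wingless-driven reporter up or down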 (primary screen)
- Cells: Drosophila clone 8 imaginal disc epithelial cells
- Reagents: long dsRNA against Drosophila genes
- Treatment: pathway stimulated by co-transfected Wingless expression plasmid
- Read-out: 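Firefly luciferase from a tcf-site Wingless reporter, measured alongside co-transfected Renilla luciferase that tracks transfection; pathway stimulated by a Wingless plasmid; the firefly-to-Renilla ratio is not deposited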
- Direction: firefly reporter light: higher = more Wg reporter light, before normalisation; Renilla control light: higher = more transfected or surviving cells
- Hit rule: 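a knock-down is a candidate when at least two out of four statistical tests show it departing from its plate mean; one test alone signals a weak candidate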
- Calls: active = candidate regulator (raises or lowers reporter); inactive = not a candidate

Target gene | dsRNA | reporter change call, replicate 1 | firefly reporter light, replicate 1 | firefly reporter light, replicate 2 | Renilla control light, replicate 1 | Renilla control light, replicate 2
mEFTu2 (GeneID 35681) | DRSC06163 | – | 13573 | – | 3813 | –
CG1136 (GeneID 38479) | DRSC08184 | – | 8221 | – | 3048 | –
mRpS18B (GeneID 35299) | DRSC02107 | – | 14137 | – | 4129 | –
NC2alpha (GeneID 37471) | DRSC04059 | Wg reporter activity raised (active) | 19224 | – | 1537 | –
Tssk (GeneID 42233) | DRSC14784 | – | 11532 | – | 2835 | –
CG13063 (GeneID 39797) | DRSC09946 | – | 8576 | – | 4204 | –
Or59a (GeneID 37711) | DRSC04631 | – | 2193 | 6630 | 661 | 3211
CG10209 (GeneID 36652) | DRSC05980 | – | 16567 | – | 4056 | –
CG3634 (GeneID 40301) | DRSC11747 | – | 13369 | – | 3652 | –
CG43295 (GeneID 12797916) | DRSC09416 | – | 3244 | – | 1271 | –
nclb (GeneID 36150) | DRSC07009 | – | 1863 | 7760 | 676 | 2564
EbpII (GeneID 326108) | DRSC04637 | – | 22944 | – | 6423 | –
EbpII (GeneID 326108) | DRSC22484 | – | 7.91e5 | 8.19e5 | 4.08e5 | 11658
Ns1 (GeneID 42060) | DRSC15529 | – | 8370 | – | 1901 | –
CG7794 (GeneID 42159) | DRSC16313 | – | 13869 | – | 3397 | –
CG13405 (GeneID 38016) | DRSC08310 | – | 6566 | – | 3030 | –
CG8765 (GeneID 40147) | DRSC11041 | – | 12394 | – | 2129 | –
CG12069 (GeneID 43643) | DRSC14470 | – | 9129 | – | 3175 | –
CG14323 (GeneID 42121) | DRSC14802 | – | 25259 | – | 6144 | –
Cyp6a2 (GeneID 35587) | DRSC05014 | – | 3062 | 11177 | 387 | 3345
CG30037 (GeneID 246409) | DRSC07305 | – | 3625 | – | 1589 | –
l(3)80Fj (GeneID 3355040) | DRSC20989 | – | 15302 | – | 9101 | –
MED20 (GeneID 43952) | DRSC03463 | Wg reporter activity raised | 4952 | 12594 | 724 | 2786
CG3987 (GeneID 41822) | DRSC15531 | – | 6418 | – | 2739 | –
Non1 (GeneID 35963) | DRSC05954 | – | 7072 | – | 1548 | –
Ir31a (GeneID 318912) | DRSC22358 | – | 4.89e5 | 6.09e5 | 1.80e5 | 2.38e5
Rich (GeneID 40456) | DRSC11607 | – | 10912 | – | 2355 | –
Pi3K21B (GeneID 33203) | DRSC00771 | – | 4784 | – | 2721 | –
Lcp65Af (GeneID 45017) | DRSC11213 | – | 1226 | 11920 | 1008 | 3581
HDAC11 (GeneID 326120) | DRSC14280 | – | 10346 | – | 10801 | –
l(2)gd1 (GeneID 34543) | DRSC02773 | – | 7642 | – | 2148 | –
Prosalpha5 (GeneID 36951) | DRSC07514 | – | 12605 | – | 1302 | –
Blos3 (GeneID 5740347) | DRSC09573 | – | 4832 | – | 1669 | –
CG17325 + CG42305 | DRSC02602 | – | 2614 | 10467 | 588 | 3651
ph-d (GeneID 44889) | DRSC18819 | Wg reporter activity raised (active) | 29427 | – | 4685 | –
CG12780 (GeneID 35834) | DRSC06169 | – | 3385 | 7320 | 1106 | 2896
Nap1 (GeneID 37798) | DRSC04626 | – | 19457 | – | 6407 | –
AANATL3 (GeneID 35285) | DRSC02089 | – | 2385 | 4932 | 763 | 2307
Ttd14 (GeneID 37119) | DRSC06632 | – | 22231 | – | 6564 | –
Ttd14 (GeneID 37119) | DRSC06942 | Wg reporter activity raised | 7547 | – | 2896 | –
QIL1 (GeneID 39948) | DRSC10888 | – | 5520 | – | 3056 | –
CG15446 (GeneID 33088) | DRSC20518 | – | 18354 | – | 9323 | –
PyK (GeneID 42620) | DRSC16806 | – | 34234 | – | 6032 | –
nub (GeneID 34669) | DRSC01260 | – | 20784 | – | 11436 | –
nub (GeneID 34669) | DRSC02498 | – | 2176 | 7648 | 860 | 2480
nub (GeneID 34669) | DRSC02499 | – | 3307 | 8208 | 1272 | 3104
nub (GeneID 34669) | DRSC03583 | – | 1637 | 4998 | 784 | 2034
snu (GeneID 43391) | DRSC16589 | – | 5681 | 11843 | 1565 | 3091
Spt3 (GeneID 41461) | DRSC15465 | – | 18618 | – | 5525 | –
CG6149 (GeneID 39277) | DRSC10593 | – | 5027 | – | 3068 | –
onecut (GeneID 45816) | DRSC17175 | – | 18900 | – | 11005 | –
Fpgs1 (GeneID 32212) | DRSC19857 | – | 20546 | – | 11008 | –
CG13359 (GeneID 31028) | DRSC18539 | – | 19319 | – | 12188 | –
CG34248 (GeneID 5740883) | DRSC09426 | – | 3037 | – | 1436 | –
CG1299 (GeneID 38496) | DRSC08300 | – | 6984 | – | 3034 | –
Ag5r (GeneID 44631) | DRSC19327 | – | 2642 | 7456 | 1040 | 2800
CG5916 (GeneID 41960) | DRSC15917 | – | 3334 | 5095 | 801 | 2027
CG15046 (GeneID 32833) | DRSC19622 | – | 29544 | – | 13784 | –
Xrp1 (GeneID 42267) | DRSC15282 | – | 8244 | – | 637 | –
Xrp1 (GeneID 42267) | DRSC15283 | – | 12544 | – | 2569 | –
CG13700 (GeneID 40013) | DRSC10049 | – | 5976 | – | 2776 | –
CG34193 (GeneID 5740572) | DRSC05665 | – | 14752 | – | 8965 | –
e(y)2 (GeneID 45848) | DRSC19640 | – | 17490 | – | 8764 | –
amx (GeneID 43869) | DRSC18736 | – | 16490 | – | 4202 | –
mRpL52 (GeneID 35711) | DRSC06585 | – | 3589 | 8563 | 1088 | 3265
Vps35 (GeneID 37536) | DRSC04519 | – | 7283 | – | 2261 | –
Ubqn (GeneID 32977) | DRSC19581 | – | 3776 | 8667 | 1078 | 2104
pcs (GeneID 36674) | DRSC07042 | – | 9261 | – | 4691 | –
Mtch (GeneID 38026) | DRSC08679 | – | 11636 | – | 4581 | –
Alp6 (GeneID 35981) | DRSC06710 | – | 9145 | – | 2928 | –
Nmnat (GeneID 42987) | DRSC14644 | – | 27563 | – | 16426 | –
ppk11 (GeneID 34299) | DRSC02737 | – | 2902 | 5273 | 717 | 2020
CG8379 (GeneID 41060) | DRSC16414 | – | 13632 | – | 4994 | –
INPP5E (GeneID 39404) | DRSC09723 | – | 5088 | – | 1699 | –
CG12147 (GeneID 40651) | DRSC12192 | – | 10034 | – | 1632 | –
CG7656 (GeneID 39691) | DRSC10900 | – | 13158 | – | 3377 | –
CG6980 (GeneID 42955) | DRSC16162 | – | 3696 | 4922 | 1544 | 1954
CG7352 (GeneID 40997) | DRSC16233 | – | 14578 | – | 3113 | –
Pgant8 (GeneID 39715) | DRSC10801 | – | 4088 | – | 1961 | –
PolZ1 (GeneID 47186) | DRSC06800 | – | 10474 | – | 3640 | –
CG10098 (GeneID 40851) | DRSC12509 | – | 6403 | – | 2498 | –
CG14505 (GeneID 37098) | DRSC06476 | – | 5035 | – | 2131 | –
CG32032 (GeneID 192535) | DRSC08961 | – | 2362 | – | 1387 | –
PIG-B (GeneID 38446) | DRSC08216 | – | 7356 | – | 4692 | –
PIG-B (GeneID 38446) | DRSC22598 | – | 5.58e5 | 5.32e5 | 1.84e5 | 1.44e5
Su(z)3 (retired record) (GeneID 48315) | DRSC07558 | – | 3987 | – | 310 | –
cd (GeneID 42681) | DRSC16157 | – | 12311 | – | 12362 | –
Cpr66Cb (GeneID 38940) | DRSC10769 | – | 1008 | 5120 | 939 | 2992
igl (GeneID 36681) | DRSC07631 | – | 16729 | – | 3168 | –
CG14864 (GeneID 41846) | DRSC14987 | – | 19170 | – | 4170 | –
CG15203 (GeneID 32038) | DRSC19650 | – | 20261 | – | 11088 | –
CG33296 (GeneID 2768941) | DRSC00998 | – | 14016 | – | 6388 | –
Nubpl (GeneID 35452) | DRSC03725 | – | 9701 | – | 2824 | –
